# Data as given in patent publication US5462848A, “Color photographic materials including magenta coupler, inhibitor-releasing coupler and carbonamide compound, and methods” (Eastman Kodak Company, priority 1993, dated 1995).
# How the values were obtained:
# [1] = Continued coupling: difference in Dmin between processes without stop bath (A, B) and with stop bath (C); conditions: for Delta Dmin Process A-C: bleach pH 5.25; for Delta Dmin Process B-C: bleach pH 6.0
# Procedure: (§1) Dispersions of couplers M1 and M2 were prepared in comparative coupler solvents S1 and S2 and in a carbonamide coupler solvent of this invention, C1. The weight ratio of coupler:solvent was 1:1. Dispersions were prepared by dissolving the coupler in a 1:3 mixture of coupler solvent plus cyclohexanone used as an auxiliary solvent. This mixture was then added to an aqueous solution of gelatin and ALKANOL XC surfactant. The two-phase mixture was passed through a colloid mill to disperse the coupler-containing oil phase in the aqueous phase in the form of small particles. The dispersion was then chilled, noodled and washed to remove the auxiliary cyclohexanone solvent. The resulting dispersions contained approximately 2% by weight of coupler and 6% by weight of gelatin.
# (§2) The dispersions were coated on a transparent support at a coupler laydown of 0.54 mmole/m^2 together with a silver bromoiodide emulsion at a silver laydown of 1.08 g/m^2 in the following format:
# (§3) The BVSME hardner is of the formula (CH2 =CHSO2 CH2)2 --O. Coatings were then exposed and subjected to variants of the KODAK FLEXICOLOR (C-41) process described below. The C-41 process is described in British Journal of Photography Annual, 1988, p-p. 196-198, discussed above. A first set of films was subjected to the standard C-41 process with no stop bath between the development and bleach steps (process A). A second set of films was also processed with out a stop bath but with the FLEXICOLOR bleach pH adjusted to 6.0 instead of the normal 5.25 (process B). This was intended to simulate behavior in a "seasoned" bleach with increased pH due to carry-over of base from the developer solution. A third set of films was processed with an acetic acid stop bath between the development and bleach steps to eliminate any continued coupling (process C).
# (§4) The differences in Dmin values resulting from process A and process C or process B and process C are measures of the continued coupling at bleach pH values of 5.25 and 6.0, respectively. Photographic gamma values, which serve as a measure of coupler activity, were obtained from plots of status M green density versus exposure for the various film samples subjected to process A. These gamma values are also listed in Table II.
# (§5) Dispersions of the pyrazolone magenta dye-forming coupler M2 were prepared in a mixture of S1 and aniline A1 (shown below) and in C5 by procedures similar to those described in Example 2. [drawing 11] An M2:S1:A1 weight ratio of 1:0.75:0.25 was used, and the M2:C5 weight ratio was 1:1. These dispersions were prepared without and with the DIR, D1, added at a M2:D1 weight ratio of 1:0.045. The dispersions were coated on a transparent sup-port at a coupler laydown of 0.54 mmole/m^2 together with a silver bromoiodide emulsion at a silver laydown of 1.08 g/m^2 in a format similar to that of Example 2. Hardened coatings were exposed and processed using the procedures described in Example 2. The differences in Dmin values obtained with process B (Bleach pH=6.0, no stop bath) versus process C (Bleach pH=5.25, with stop bath), which are measures of continued coupling, are listed in Table III.
# (§6) Dispersions of pyrazolone magenta dye-forming couplers M3 and M4 were prepared in combination with coupler solvents S1 and C5, with and without DIR coupler D1. The ratio of the pyrazolone coupler to the coupler solvent was 1:1. These dispersions were coated on a transparent support at a coupler laydown of 0.54 mmole/m^2, together with a silver bromoiodide emulsion at a silver laydown of 1.08 g/m^2, as in Example 2. The differences in Dmin values obtained in process A (Bleach pH=5.25, no stop bath) and in process B (Bleach pH=6.0, no stop bath) and process C are listed in Table IV. Larger differences are indicative of higher undesirable continued coupling.
# (§7) Dispersions of the pyrazolone magenta dye-forming couplers M3 and M8, together with S1 and D1 or with C1 and D1, were prepared. […]
# [2] = Photographic gamma (coupler activity) from plots of status M green density versus exposure
# Procedure: as §1, §2, §3, §4, §5, §6, §7
# [3] = Table II, coupler solvent C1(1.0)
# [4] = Table II, coupler solvent S1(1.0)
# [5] = Table II, coupler solvent S2(1.0)
# [6] = Table IV, C5(1.0), DIR coupler D1(0.04)
# [7] = Table IV, C5(1.0), no DIR coupler
# [8] = Table IV, S1(1.0), DIR coupler D1(0.04)
# [9] = Table IV, S1(1.0), no DIR coupler
# [10] = Table V, C1(1.0), DIR coupler D1 0.022 g/m^2 (0.040 with M3, 0.043 with M8)
# [11] = Table V, S1(1.0), DIR coupler D1 0.022 g/m^2 (0.040 with M3, 0.043 with M8)
SMILES,"Delta Dmin Process A-C [1, 6]","Delta Dmin Process B-C [1, 6]","Delta Dmin Process A-C [1, 7]","Delta Dmin Process B-C [1, 7]","Delta Dmin Process A-C [1, 8]","Delta Dmin Process B-C [1, 8]","Delta Dmin Process A-C [1, 9]","Delta Dmin Process B-C [1, 9]","Delta Dmin Process B-C [1, 10]","Delta Dmin Process B-C [1, 11]","Gamma [2, 6]","Gamma [2, 7]","Gamma [2, 8]","Gamma [2, 9]","Gamma [2, 10]","Gamma [2, 11]",other results
CCCCCCCCCCCCNS(=O)(=O)c1ccc(NC2=NN(c3c(Cl)cc(Cl)cc3Cl)C(=O)C2Sc2cc(C(C)(C)CC(C)(C)C)ccc2OCCCC)c(Cl)c1 (centres unmarked) [M1],–,–,–,–,–,–,–,–,–,–,–,–,–,–,–,–,"Delta Dmin Process A-C [1, 3]: 0.01; Delta Dmin Process B-C [1, 3]: 0.03; Delta Dmin Process A-C [1, 4]: 0.04; Delta Dmin Process B-C [1, 4]: 0.19; Delta Dmin Process A-C [1, 5]: 0.10; Delta Dmin Process B-C [1, 5]: 0.33; Gamma ([2]; Table II, coupler solvent C1(1.0), process A): 1.84; Gamma ([2]; Table II, coupler solvent S1(1.0), process A): 2.10; Gamma ([2]; Table II, coupler solvent S2(1.0), process A): 2.41"
CCCCCCCCCCCCCC(=O)Nc1ccc(Cl)c(NC2=NN(c3c(Cl)cc(Cl)cc3Cl)C(=O)C2Sc2ccccc2NC(=O)C(CC)Oc2ccc(C(C)(C)CC)cc2C(C)(C)CC)c1 (centres unmarked) [M3],0.05,0.13,0.04,0.13,0.11,0.30,0.09,0.26,0.13,0.20,1.60,2.70,1.52,2.65,1.73,1.63,–
CCCCCCCCCCCCNS(=O)(=O)c1ccc(NC2=NN(c3c(Cl)cc(Cl)cc3Cl)C(=O)C2Sc2ccccc2NC(=O)C(CC)Oc2ccc(C(C)(C)CC)cc2C(C)(C)CC)c(Cl)c1 (centres unmarked) [M4],0.10,0.22,0.08,0.20,0.23,0.52,0.23,0.48,–,–,1.88,3.06,1.67,3.31,–,–,–
CCCCCCCCCCCCNS(=O)(=O)c1ccc(NC2=NN(c3c(Cl)cc(Cl)cc3Cl)C(=O)C2Sc2ccccc2NC(=O)CCCCCCCCCCC)c(Cl)c1 (centres unmarked) [M8],–,–,–,–,–,–,–,–,0.25,0.57,–,–,–,–,1.91,2.62,–
